Laboratory results as given in PMC10344862.
No constants are given. Whether binding was seen depends on the method and setting. In cells and extracts the contact can be indirect. These calls come from enrichment with a bait or labelling near it, and not all partners need be listed.

By UniProt entry, the sequences of proteins in these tests, tags left out. Residues count along the entry.
UniProt Q9Y6N7, residues 26-1651: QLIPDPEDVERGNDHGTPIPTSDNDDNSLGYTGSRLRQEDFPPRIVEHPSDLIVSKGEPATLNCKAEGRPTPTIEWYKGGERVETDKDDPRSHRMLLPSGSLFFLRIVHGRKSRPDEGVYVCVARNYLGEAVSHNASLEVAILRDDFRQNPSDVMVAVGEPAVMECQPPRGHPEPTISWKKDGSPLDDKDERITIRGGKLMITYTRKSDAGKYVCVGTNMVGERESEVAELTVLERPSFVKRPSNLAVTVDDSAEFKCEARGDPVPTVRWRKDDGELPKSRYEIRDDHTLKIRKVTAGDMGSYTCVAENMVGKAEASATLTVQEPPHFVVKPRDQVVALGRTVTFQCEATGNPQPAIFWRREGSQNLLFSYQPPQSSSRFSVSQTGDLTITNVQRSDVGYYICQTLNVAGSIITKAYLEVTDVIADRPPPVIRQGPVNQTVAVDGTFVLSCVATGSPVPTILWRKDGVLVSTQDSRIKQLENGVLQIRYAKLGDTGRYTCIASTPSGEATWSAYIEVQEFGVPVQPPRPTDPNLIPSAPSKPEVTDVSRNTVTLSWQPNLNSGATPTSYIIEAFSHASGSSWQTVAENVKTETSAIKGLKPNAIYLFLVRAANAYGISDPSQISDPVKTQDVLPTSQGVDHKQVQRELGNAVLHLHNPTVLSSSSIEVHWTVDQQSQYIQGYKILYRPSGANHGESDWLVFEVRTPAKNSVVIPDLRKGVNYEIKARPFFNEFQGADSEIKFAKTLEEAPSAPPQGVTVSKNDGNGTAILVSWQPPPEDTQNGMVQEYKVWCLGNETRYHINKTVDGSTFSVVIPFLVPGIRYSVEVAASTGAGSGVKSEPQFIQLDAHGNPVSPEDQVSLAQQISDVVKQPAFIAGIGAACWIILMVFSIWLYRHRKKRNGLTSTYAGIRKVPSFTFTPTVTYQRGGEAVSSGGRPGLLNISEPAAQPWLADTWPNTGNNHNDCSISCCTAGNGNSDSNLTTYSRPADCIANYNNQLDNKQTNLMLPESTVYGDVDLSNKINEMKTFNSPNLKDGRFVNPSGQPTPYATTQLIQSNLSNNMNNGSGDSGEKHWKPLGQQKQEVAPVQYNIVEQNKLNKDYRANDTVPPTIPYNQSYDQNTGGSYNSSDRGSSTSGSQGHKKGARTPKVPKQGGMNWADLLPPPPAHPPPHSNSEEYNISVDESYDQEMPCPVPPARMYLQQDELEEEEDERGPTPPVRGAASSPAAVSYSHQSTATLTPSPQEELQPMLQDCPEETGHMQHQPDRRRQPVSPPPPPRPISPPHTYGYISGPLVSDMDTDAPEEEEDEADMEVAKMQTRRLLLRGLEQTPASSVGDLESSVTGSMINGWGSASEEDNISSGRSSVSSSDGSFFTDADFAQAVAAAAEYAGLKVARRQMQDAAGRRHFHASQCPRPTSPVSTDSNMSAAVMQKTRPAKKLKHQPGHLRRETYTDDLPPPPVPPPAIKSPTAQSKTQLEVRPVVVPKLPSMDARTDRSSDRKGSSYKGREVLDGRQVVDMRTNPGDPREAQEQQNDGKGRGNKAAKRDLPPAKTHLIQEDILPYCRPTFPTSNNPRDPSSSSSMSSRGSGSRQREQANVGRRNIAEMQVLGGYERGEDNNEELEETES
UniProt Q8TD19: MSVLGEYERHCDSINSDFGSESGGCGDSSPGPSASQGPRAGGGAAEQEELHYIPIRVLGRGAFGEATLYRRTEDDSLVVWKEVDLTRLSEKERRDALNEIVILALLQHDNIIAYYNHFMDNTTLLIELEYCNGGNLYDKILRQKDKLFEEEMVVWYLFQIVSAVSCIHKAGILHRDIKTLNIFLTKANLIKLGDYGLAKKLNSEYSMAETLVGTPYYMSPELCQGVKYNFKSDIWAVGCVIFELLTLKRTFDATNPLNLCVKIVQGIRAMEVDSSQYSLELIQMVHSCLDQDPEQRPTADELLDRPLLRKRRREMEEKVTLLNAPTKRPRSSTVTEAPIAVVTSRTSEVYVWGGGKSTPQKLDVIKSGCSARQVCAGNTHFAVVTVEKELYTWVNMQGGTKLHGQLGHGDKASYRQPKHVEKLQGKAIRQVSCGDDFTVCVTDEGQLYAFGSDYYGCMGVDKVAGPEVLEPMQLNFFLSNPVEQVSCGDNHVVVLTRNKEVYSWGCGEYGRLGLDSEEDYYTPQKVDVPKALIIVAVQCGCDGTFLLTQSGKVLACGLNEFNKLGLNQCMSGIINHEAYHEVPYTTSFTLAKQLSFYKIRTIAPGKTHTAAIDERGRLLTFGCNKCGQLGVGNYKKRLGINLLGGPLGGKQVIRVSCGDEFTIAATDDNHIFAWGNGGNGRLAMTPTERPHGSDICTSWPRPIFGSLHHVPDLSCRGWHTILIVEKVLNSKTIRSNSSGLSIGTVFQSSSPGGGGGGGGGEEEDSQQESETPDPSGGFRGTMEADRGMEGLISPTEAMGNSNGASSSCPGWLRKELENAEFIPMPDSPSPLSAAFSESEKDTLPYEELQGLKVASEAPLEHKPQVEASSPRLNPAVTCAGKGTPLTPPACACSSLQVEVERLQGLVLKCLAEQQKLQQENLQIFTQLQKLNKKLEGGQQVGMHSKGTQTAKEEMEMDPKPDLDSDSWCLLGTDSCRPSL

Biological target: ROBO1 (source not told: bait of the mass spectrometry analysis; partner in the co-IP of Fig. 2E) (UniProt Q9Y6N7)
Assay: affinity purification with mass spectrometry; potential interacting proteins of ROBO1 analysed by mass spectrometry; bait, cells and conditions not told

With “NEK9 (source not told: hit of the mass spectrometry analysis; partner in the co-IPs of Fig. 3G, H) (from UniProt Q8TD19 1-979) (enzyme)” the binding was “binds”.
